Article PMC12527946
Results are given in words; binding and its absence hold for the method and conditions named.

Chains of the proteins cited; added tags and fusions are not shown. Lines headed by an entry give the natural chain unless they say otherwise; changes in a name come on top. A line that says so, or that is headed by a name, gives the form on record, which may keep a tag or linker.
Clu-Δ(214–238) (tail mutant TL1) (P10909, form named): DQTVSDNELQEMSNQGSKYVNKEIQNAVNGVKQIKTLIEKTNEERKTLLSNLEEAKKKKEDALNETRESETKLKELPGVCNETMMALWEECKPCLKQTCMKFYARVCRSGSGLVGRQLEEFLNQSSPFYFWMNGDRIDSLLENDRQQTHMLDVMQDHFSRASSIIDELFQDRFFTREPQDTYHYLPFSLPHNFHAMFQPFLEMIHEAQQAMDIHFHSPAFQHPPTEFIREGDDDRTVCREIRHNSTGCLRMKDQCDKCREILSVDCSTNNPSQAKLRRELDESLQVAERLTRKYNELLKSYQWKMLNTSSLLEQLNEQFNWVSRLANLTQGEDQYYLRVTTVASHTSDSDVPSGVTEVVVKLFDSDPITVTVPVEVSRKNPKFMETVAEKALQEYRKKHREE

Biological target: Clu-Δ(214–238) (tail mutant TL1) (human) (UniProt P10909)
Assay: SEC; 10 μM Clu in 20 mM Na-acetate pH 5.0, 100 mM NaCl, 1 mM EDTA, overnight or longer on ice; Superdex-200 Increase 3.2/300 at room temperature; both purified

“Clu-Δ(214–238) (tail mutant TL1) (from UniProt P10909 23-449)” was tested. Which binding did it give?
Its binding is “no binding (condition: at pH 5.0 (10 μM))”.
